The list shows a part of the results.

Amino acid sequences for entries named in this document (tags omitted).
UniProt Q0JBA9, entry or part of it: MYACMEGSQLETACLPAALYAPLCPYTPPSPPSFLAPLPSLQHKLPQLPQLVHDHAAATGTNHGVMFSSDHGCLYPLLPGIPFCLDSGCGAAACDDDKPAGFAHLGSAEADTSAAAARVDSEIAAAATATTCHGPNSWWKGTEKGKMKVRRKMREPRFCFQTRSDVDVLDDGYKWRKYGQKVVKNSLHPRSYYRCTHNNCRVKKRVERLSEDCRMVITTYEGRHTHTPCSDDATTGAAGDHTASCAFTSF

From article PMC7819943, “Rice protein-binding microarrays: a tool to detect cis-acting elements near promoter regions in rice” come the findings set out here.

The test has as its target OsWRKY34 (Oryza sativa, UniProt Q0JBA9 1-250). As to the kind of experiment: protein-binding microarray (RPBM); PBS, 2% BSA, 51.3 ng/ul salmon testes DNA, 50 uM zinc acetate, 200 nM TF, 25 C, 1 h; high values mean tight binding. The following applies: protein: recombinant; tags: N-terminal polyhistidine and DsRed monomer fusion (pET32a); label: CyDye5-dUTP incorporated in the synthesized complementary strand; 3' TTTTT single-stranded linker to array surface; dsDNA, one strand shown. The method in brief:
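For the binding signal, per-feature fluorescence intensity was read in arbitrary units on an Axon 4000B scanner. Before scanning, a 2% BSA-blocked custom Agilent array made double-stranded with Cy5-dUTP was washed after 1 h at 25 °C with 200 nM protein and 50 µM zinc acetate. The proteins were Ni–NTA-purified transcription factors with N-terminal polyhistidine and DsRed fusions, expressed in E. coli BL21-CodonPlus.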
On to “CTCCTCAAACACACCATTATTACTGTCTCACATCACATATCGGAGTCACCTAGTGCAG”, for which the binding signal is 11600 fluorescence intensity (a.u.).
For “TTTGATATGAGTGCTCGCATTTACGGCTAATTATTCTTTCCGGAGTCACCTAGTGCAG” the value was 8550 fluorescence intensity (a.u.); for “GCAAGCGCTGTTGCCTGCCTGTAGCTAGCTTTTATATCGTCGGAGTCACCTAGTGCAG”, 9430 fluorescence intensity (a.u.).
For “GACCCTGCCCAGGATCATCAATACACGTTGAGGCTTCTTCCGGAGTCACCTAGTGCAG” the value was 8570 fluorescence intensity (a.u.); for “GAGGATGCGAACCCCTGTACTACCGTCTTCTGCAAAAACACGGAGTCACCTAGTGCAG”, 10600 fluorescence intensity (a.u.); for “CTTCAGTCATTTTCCATCACATCAACCTGTCATACACACACGGAGTCACCTAGTGCAG”, 9770 fluorescence intensity (a.u.).
For “TGCTGCCCCGCCAACATCGTGTTGAATCTCGTCGATATATCGGAGTCACCTAGTGCAG” the value was 8280 fluorescence intensity (a.u.); for “TCTTTTCTTGGCTCCGCTTTGTTCTTGCTCTCATCTTGCTCGGAGTCACCTAGTGCAG”, 11300 fluorescence intensity (a.u.); for “TGTCGGGTTTGTGTTGTGTTTGTGTGTGTAGTGTGAGATCCGGAGTCACCTAGTGCAG”, 12700 fluorescence intensity (a.u.).
Consider “ATCATAACTAGCATCCATCCCAAGCTTAGATCATTGGATACGGAGTCACCTAGTGCAG”, for which the binding signal was 8030 fluorescence intensity (a.u.).
“CGGTCTGCTTTCTACAACACCTCGATCTCGTCTATAAATACGGAGTCACCTAGTGCAG”: the binding signal is 10500 fluorescence intensity (a.u.).
With “TGTGGTTTATGGTCGTGGATTAGATTTCGATCACAGTTGACGGAGTCACCTAGTGCAG”, the binding signal is 15100 fluorescence intensity (a.u.).
Turning to “AGCCACGTCGTCCAGATCGCCACTCGCCCATCTCTCTCTCCGGAGTCACCTAGTGCAG”, the binding signal is 10700 fluorescence intensity (a.u.).
With “TTCTTGTGATGTTCTTTCTCTTATTCGTTGTCCTCACACCCGGAGTCACCTAGTGCAG”, the binding signal was 9500 fluorescence intensity (a.u.).
Take “GCCGTTCGCTTCCCGCAATCTTGTTTCCTACGTACGACGACGGAGTCACCTAGTGCAG”: the binding signal was 12200 fluorescence intensity (a.u.).
For “CTCTACCTGCATCTGACCACCTCCATTGTTTCTGCAGCCTCGGAGTCACCTAGTGCAG” the value was 8750 fluorescence intensity (a.u.); for “AAACCCTCTCTCTCTCTCTCTCTCACACACACACGCAAACCGGAGTCACCTAGTGCAG”, 10300 fluorescence intensity (a.u.).
For “CTCCATCGCCACTTCACTTGATTCGCCGCCGACGAACTCCCGGAGTCACCTAGTGCAG” the value was 8350 fluorescence intensity (a.u.).
Turning to “CCTCCGCGTGAATCCCCGCCCCTGCCTACCTCCGCGACATCGGAGTCACCTAGTGCAG”, the binding signal is 9160 fluorescence intensity (a.u.).
With “CTTTGGCTTTAATTTGTGGCGTTCGTTTTCCGTGCACTAACGGAGTCACCTAGTGCAG”, the binding signal was 15600 fluorescence intensity (a.u.).
Turning to “ACATCCGATCAGTTTTCGTCCCTACTTCTATATTACTATACGGAGTCACCTAGTGCAG”, the binding signal was 12800 fluorescence intensity (a.u.).
For “CTTCTTGATCTCTGCTGAATTCATCTTGATTTTGGATTGACGGAGTCACCTAGTGCAG” the value was 8240 fluorescence intensity (a.u.).
With “AGGTGTTTGATGTTTGATGAACTCGTACTTTTTATAGTAGCGGAGTCACCTAGTGCAG” the figure was 9080 fluorescence intensity (a.u.).
Consider “CACAGCCATACGCCCATACCCATACCCCGGACGCAGACGACGGAGTCACCTAGTGCAG”, for which the binding signal was 8270 fluorescence intensity (a.u.).
In the case of “CTTCCAACTTTTCCGTCACATCGTTCCAATTTCAACCAAACGGAGTCACCTAGTGCAG”, the binding signal is 8680 fluorescence intensity (a.u.).
For “TCTATTTCTTTATCCTTTTGACTTTGTTCTGTACTGATGTCGGAGTCACCTAGTGCAG” the value was 10900 fluorescence intensity (a.u.); for “GGTGACGGCGGCTGTCTTCTTCGTAGGGTGCGGGGTGGCTCGGAGTCACCTAGTGCAG”, 8880 fluorescence intensity (a.u.).
With “GATATCATATGCTGCCTGTAATGTATTGGATCCATCTGTACGGAGTCACCTAGTGCAG”, the binding signal is 8230 fluorescence intensity (a.u.).
For “TCATCAAGGCCTGTCTGTGGGACCTCCTGTTTTCGTGCCACGGAGTCACCTAGTGCAG” the value was 9520 fluorescence intensity (a.u.); for “TATCCCGTACTTCGTATTTGGTTGTACACTAGTAGTACCACGGAGTCACCTAGTGCAG”, 8180 fluorescence intensity (a.u.); for “CCACCACCGACGACTCCGACTCCGACTCCGGCTCGATCTCCGGAGTCACCTAGTGCAG”, 8700 fluorescence intensity (a.u.).
For “TCACTGAACAACCACGTTGCTGCTGGTTCTTTTGGTCAGCCGGAGTCACCTAGTGCAG” the value was 9960 fluorescence intensity (a.u.).
With “CCTTGCCGCGCCGTCACACCGCCGCCGCCTCCTCGCCATGCGGAGTCACCTAGTGCAG” the figure was 8530 fluorescence intensity (a.u.); with “TTCTCTATACTCTTTGTATTGCCTAGTTGTCTTCTGTGGACGGAGTCACCTAGTGCAG”, 10400 fluorescence intensity (a.u.).
For the sequence “TGTTGCTGTGTTCGATCGACATGCTCTGCTTCTGCTTCTGCGGAGTCACCTAGTGCAG”, the binding signal was 9170 fluorescence intensity (a.u.).
For “GTCCGTGGGGCCCACACCAAAGACCGTTGACTTGACTAGTCGGAGTCACCTAGTGCAG” the value was 12100 fluorescence intensity (a.u.); for “GTAGGGGCGGGAGGGGAGGCGTGGTGGCGCCGGGCCGGCGCGGAGTCACCTAGTGCAG”, 14900 fluorescence intensity (a.u.); for “CGGTGTATTTGTATGGTTTTCGGGCCTAGTTTTACTTATACGGAGTCACCTAGTGCAG”, 12000 fluorescence intensity (a.u.).
With “GCCGATCGGTCTTTTGTCTTTTCTCTAACTCTATCAGACCCGGAGTCACCTAGTGCAG” the figure was 8740 fluorescence intensity (a.u.); with “CCCATCCTCCCACTCGGCCACTCCCACTCCCTCTCCCTCTCGGAGTCACCTAGTGCAG”, 8400 fluorescence intensity (a.u.); with “CTCTATCACGATCTCTATCTGATTCGTCGTGTCCTTATTTCGGAGTCACCTAGTGCAG”, 9540 fluorescence intensity (a.u.).
With “ACGGACGGTCAAACGTTGAACATGAACAGTACAAAACTACCGGAGTCACCTAGTGCAG” the figure was 8300 fluorescence intensity (a.u.); with “TTAGGTCGTCAGGTGTTTCCTGTAGTTAGGGTTTGTCCTTCGGAGTCACCTAGTGCAG”, 8720 fluorescence intensity (a.u.).
In the case of “TCTGCGGCAAGTACTAAATTGACTTTTCTTATACTTTTTCCGGAGTCACCTAGTGCAG”, the binding signal is 10900 fluorescence intensity (a.u.).
With “TTCTTCTTTTCCACGGCGCCGTCGCGAAGTTCTCCTCGATCGGAGTCACCTAGTGCAG” the figure was 8630 fluorescence intensity (a.u.); with “CTGGTGATATTTCTCTGCTTCCAAGGCTTCCGGCTTTCTCCGGAGTCACCTAGTGCAG”, 10100 fluorescence intensity (a.u.).
With “CCACCAGCGATTTGGCCCGATCTCATCCCACCAGCGATTTCGGAGTCACCTAGTGCAG” the figure was 8430 fluorescence intensity (a.u.); with “ATGTATTGCAATTGTTGCATCTGTGGTCTGCCTTAAACATCGGAGTCACCTAGTGCAG”, 8530 fluorescence intensity (a.u.); with “AACCCCATTCTTAAGATAGTATAGTGTCAATTTTCTCAGCCGGAGTCACCTAGTGCAG”, 8060 fluorescence intensity (a.u.).
For “GAACTACGTCACACACAGCTTGTCGGTTCTACATCTATATCGGAGTCACCTAGTGCAG” the value was 8570 fluorescence intensity (a.u.); for “AGAAAATCCCGATACGTCTCCGATACTCCAATCCCTAAATCGGAGTCACCTAGTGCAG”, 8740 fluorescence intensity (a.u.).
For “ATAAATATATTTTTAGTTTTCCACACGTTCCGTTCCTTCCCGGAGTCACCTAGTGCAG”, the binding signal is 9120 fluorescence intensity (a.u.).
With “TTTTCATATACTATCTGTTGAGTACTCTCTCTTTGTATTACGGAGTCACCTAGTGCAG” the figure was 11700 fluorescence intensity (a.u.); with “CCGGATCGATCTCAACGAGGTTCCATTCGTCCATGCCGCCCGGAGTCACCTAGTGCAG”, 8500 fluorescence intensity (a.u.).
